“Also recorded” adds a separate entry of the source. Not every detail of the peptide structures is certain; ends, links or a residue may be inferred. Some compounds share one wording; it may come from a single statement. Where a SMILES comes first, the peptide text is derived from it. Bridges are numbered along the chain shown (N, C = ends).
What was measured:
[1] = Transmission electron microscopy (TEM) of samples at end of kinetic experiments; format: physicochemical; conditions: aliquots at end of kinetic experiment; 16 μM hIAPP, 160 μM analogs, pH 7.4
Description: TEM images were collected at the Life Science Microscopy Center at the State University of New York at Stony Brook. 15 μL aliquots of the samples used for fluorescence assays were removed at the end of each kinetic experiment, blotted on a carbon-coated 200-mesh copper grid for 1 min and then negatively stained with saturated uranyl acetate for 1 min. Samples were further analyzed using TEM and CD.

[2] = Thioflavin-T fluorescence assay of amyloid formation kinetics; format: physicochemical; conditions: 160 μM peptide, 20 mM Tris-HCl pH 7.4, 25° C., without stirring, about 140 hrs
Description: Each peptide was dissolved into 100% hexafluoroisoproponal (HFIP) to make a 1.6 mM stock solution. Stock solutions were filtered using […] Acrodisc syringe filter with a GHP membrane and the required amount of peptide was lyophilized overnight to remove HFIP. Dry peptide was dissolved into the appropriate buffer for the fluorescence assays. Thioflavin-T binding assays, conducted without HFIP or stirring at 25° C., were utilized to monitor amyloid formation kinetics. Fluorescence measurements were performed using a Beckman Coulter DTX 880 plate reader with a multimode detector using an excitation wavelength of 430 nm and an emission wavelength of 485 nm. Samples were prepared by dissolving dry peptide into Tris-HCl buffer and thioflavin-T solution immediately before the measurement. The final concentrations were 16 μM hIAPP or 160 μM of each analog and 32 μM thioflavin-T in 20 mM Tris-HCl (pH 7.4). After creating mutant hIAPP polypeptides of the present disclosure, applicants tested the propensity of the different analogs to form amyloid at pH 7.4 using thioflavin-T fluorescence assays. […] Amyloid formation follows a sigmoidal time course consisting of a lag phase in which few, if any, fibrils are formed, followed by a growth phase and a saturation phase in which amyloid fibrils are in equilibrium with soluble peptide.

Q: Which results are given for `CC(C)C[C@H](NC(=O)[C@H](CCCNC(=N)N)NC(=O)[C@H](CCC(N)=O)NC(=O)[C@@H](NC(=O)[C@H](C)NC(=O)[C@@H]1CSSC[C@H](NC(=O)[C@@H](N)CCCCN)C(=O)N[C@@H](CC(N)=O)C(=O)N[C@@H]([C@@H](C)O)C(=O)N[C@@H](C)C(=O)N[C@@H]([C@@H](C)O)C(=O)N1)[C@@H](C)O)C(=O)N[C@@H](C)C(=O)N[C@@H](CC(N)=O)C(=O)N[C@@H](Cc1ccccc1)C(=O)N[C@@H](CC(C)C)C(=O)N[C@H](C(=O)N[C@@H](CCCNC(=N)N)C(=O)N[C@@H](CO)C(=O)N[C@@H](CO)C(=O)N[C@@H](CC(N)=O)C(=O)N[C@@H](CC(N)=O)C(=O)N[C@@H](Cc1ccccc1)C(=O)N1CCC[C@H]1C(=O)N[C@@H](C)C(=O)N1CCC[C@H]1C(=O)N[C@@H](CC(C)C)C(=O)N[C@@H](CO)C(=O)N[C@@H](CO)C(=O)N[C@H](C(=O)N[C@@H](CC(N)=O)C(=O)N[C@H](C(=O)NCC(=O)N[C@@H](CO)C(=O)N[C@@H](CC(N)=O)C(=O)N[C@H](C(=O)N[C@@H](Cc1ccc(O)cc1)C(N)=O)[C@@H](C)O)C(C)C)[C@@H](C)O)C(C)C` [TM-a] (H-KCNTATCATQRLANFLVRSSNNFPAPLSSTNVGSNTY-NH2; disulfide 2-7; N-terminus assumed)?
A: fibril morphology in TEM images [1]: no fibrils were found; amyloid formation monitored by thioflavin-T fluorescence [2]: flat fluorescence curves; also recorded: do not form amyloid

Q: For `CC(C)C[C@H](NC(=O)[C@H](CCCNC(=N)N)NC(=O)[C@H](CCC(N)=O)NC(=O)[C@@H](NC(=O)[C@H](C)NC(=O)[C@@H]1CSSC[C@H](NC(=O)[C@@H](N)CCCCN)C(=O)N[C@@H](CC(N)=O)C(=O)N[C@@H]([C@@H](C)O)C(=O)N[C@@H](C)C(=O)N[C@@H]([C@@H](C)O)C(=O)N1)[C@@H](C)O)C(=O)N[C@@H](C)C(=O)N[C@@H](CC(N)=O)C(=O)N[C@@H](Cc1ccccc1)C(=O)N[C@@H](CC(C)C)C(=O)N[C@H](C(=O)N[C@@H](Cc1c[nH]cn1)C(=O)N[C@@H](CO)C(=O)N[C@@H](CCCNC(=N)N)C(=O)N[C@@H](CC(N)=O)C(=O)N[C@@H](CC(N)=O)C(=O)N[C@@H](Cc1ccccc1)C(=O)N1CCC[C@H]1C(=O)N[C@@H](C)C(=O)N1CCC[C@H]1C(=O)N[C@@H](CC(C)C)C(=O)N[C@@H](CO)C(=O)N[C@@H](CO)C(=O)N[C@H](C(=O)N[C@@H](CC(N)=O)C(=O)N[C@H](C(=O)NCC(=O)N[C@@H](CO)C(=O)N[C@@H](CC(N)=O)C(=O)N[C@H](C(=O)N[C@@H](Cc1ccc(O)cc1)C(N)=O)[C@@H](C)O)C(C)C)[C@@H](C)O)C(C)C` [TM-b] (H-KCNTATCATQRLANFLVHSRNNFPAPLSSTNVGSNTY-NH2; disulfide 2-7; N-terminus assumed), which “fibril morphology in TEM images” value [1] is on record?
A: no fibrils were found

Q: What about the “amyloid formation monitored by thioflavin-T fluorescence” value [2] of the same compound?
A: flat fluorescence curves; also recorded: does not form amyloid

Q: What does the source list for `CC(C)C[C@H](NC(=O)[C@H](CCCNC(=N)N)NC(=O)[C@H](CCC(N)=O)NC(=O)[C@@H](NC(=O)[C@H](C)NC(=O)[C@@H]1CSSC[C@H](NC(=O)[C@@H](N)CCCCN)C(=O)N[C@@H](CC(N)=O)C(=O)N[C@@H]([C@@H](C)O)C(=O)N[C@@H](C)C(=O)N[C@@H]([C@@H](C)O)C(=O)N1)[C@@H](C)O)C(=O)N[C@@H](C)C(=O)N[C@@H](CC(N)=O)C(=O)N[C@@H](Cc1ccccc1)C(=O)N[C@@H](CC(C)C)C(=O)N[C@H](C(=O)N[C@@H](CCCNC(=N)N)C(=O)N[C@@H](CO)C(=O)N[C@@H](CO)C(=O)N[C@@H](CC(N)=O)C(=O)N[C@@H](CC(N)=O)C(=O)N[C@@H](Cc1ccccc1)C(=O)NCC(=O)N[C@@H](C)C(=O)N1CCC[C@H]1C(=O)N[C@@H](CC(C)C)C(=O)N[C@@H](CO)C(=O)N[C@@H](CO)C(=O)N[C@H](C(=O)N[C@@H](CC(N)=O)C(=O)N[C@H](C(=O)NCC(=O)N[C@@H](CO)C(=O)N[C@@H](CC(N)=O)C(=O)N[C@H](C(=O)N[C@@H](Cc1ccc(O)cc1)C(N)=O)[C@@H](C)O)C(C)C)[C@@H](C)O)C(C)C` [DM] (H-KCNTATCATQRLANFLVRSSNNFGAPLSSTNVGSNTY-NH2; disulfide 2-7; N-terminus assumed)?
A: fibril morphology in TEM images [1]: no fibrils were found; also recorded: did not form amyloid; amyloid formation monitored by thioflavin-T fluorescence [2]: flat fluorescence curves; also recorded: did not form amyloid; also recorded: does not form amyloid

Reference: patent US10683333B2, “Islet amyloid polypeptides with improved solubility” (The Research Foundation for The State University of New York, priority 2014, dated 2020)
